The test system of series [1] is VEGF165 (Homo sapiens). Briefly: EMSA. As to conditions: DNA 200 fmol annealed to RNA 100 fmol; purified recombinant protein; protein details: R&D Systems or USB; label: 32P; DNA:RNA hybrid; variant of RNA132; counted as no binding. Background: In EMSA bound probe runs differently from free probe, usually more slowly.
The target in the next series is T1, endocrine gland VEGF (UniProt P58294).
T1 sequence (looked up, limits assumed): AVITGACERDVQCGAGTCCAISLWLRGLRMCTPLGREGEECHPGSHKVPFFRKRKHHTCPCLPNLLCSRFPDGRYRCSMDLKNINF
Briefly: competition with a labelled probe. Particulars: 10 fmol; no phase transition at 40 min; purified recombinant protein; protein details: R&D Systems or USB; dose not given here.

Chains of the proteins cited; added tags and fusions are not shown. A line that says so, or that is headed by a name, gives the form on record, which may keep a tag or linker. Residues count along the entry.
UniProt P02769, 25-607: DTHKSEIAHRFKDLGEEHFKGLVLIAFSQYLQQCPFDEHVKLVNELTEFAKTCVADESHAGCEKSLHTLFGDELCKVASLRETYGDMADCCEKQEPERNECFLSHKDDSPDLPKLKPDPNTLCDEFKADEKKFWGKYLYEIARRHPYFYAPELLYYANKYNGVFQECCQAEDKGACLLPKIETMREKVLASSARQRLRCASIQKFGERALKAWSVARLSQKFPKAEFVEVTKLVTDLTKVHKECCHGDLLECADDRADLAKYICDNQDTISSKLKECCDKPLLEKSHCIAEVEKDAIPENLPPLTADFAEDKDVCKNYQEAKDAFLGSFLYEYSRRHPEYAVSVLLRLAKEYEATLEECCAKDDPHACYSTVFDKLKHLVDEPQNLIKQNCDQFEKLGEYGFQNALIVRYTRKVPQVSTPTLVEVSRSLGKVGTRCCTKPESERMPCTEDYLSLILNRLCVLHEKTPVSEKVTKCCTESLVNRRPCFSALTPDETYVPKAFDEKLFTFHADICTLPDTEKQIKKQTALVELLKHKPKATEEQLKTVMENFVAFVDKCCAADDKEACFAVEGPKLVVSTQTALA
VEGF165 (Homo sapiens), one chain, as listed by the source: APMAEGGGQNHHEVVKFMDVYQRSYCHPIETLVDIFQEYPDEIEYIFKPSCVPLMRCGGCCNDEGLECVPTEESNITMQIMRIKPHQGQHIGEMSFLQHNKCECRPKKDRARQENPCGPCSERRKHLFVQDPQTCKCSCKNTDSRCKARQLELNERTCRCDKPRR
VEGF/PlGF heterodimer (Homo sapiens), one chain, as listed by the source, chain 2 of 2: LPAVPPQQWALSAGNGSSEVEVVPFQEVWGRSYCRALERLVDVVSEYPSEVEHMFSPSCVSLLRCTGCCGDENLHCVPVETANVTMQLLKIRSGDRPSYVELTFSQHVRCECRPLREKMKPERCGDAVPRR
VEGF121 (Homo sapiens), one chain, as listed by the source: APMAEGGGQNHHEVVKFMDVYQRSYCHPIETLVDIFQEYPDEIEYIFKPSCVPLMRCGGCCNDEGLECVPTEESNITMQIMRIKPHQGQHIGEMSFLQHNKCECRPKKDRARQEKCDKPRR

A further series concerns VEGF121 (Homo sapiens). Nature of the series: competition with a labelled probe. As to conditions: 10 fmol; no phase transition at 40 min; purified recombinant protein; protein details: R&D Systems or USB; dose not given here.
For series [2], the system named is VEGF165 (Homo sapiens). Nature of the series: competition with a labelled probe. Particulars: reverses RVV-X inhibition at 3-30 fmol; coagulation complete within 40 min; purified recombinant protein; protein details: R&D Systems or USB; dose not given here.
The target of series [3] is bovine serum albumin (BSA) (UniProt P02769). Nature of the series: competition with a labelled probe. Particulars: 10 fmol; no phase transition at 40 min; purified native protein; dose not given here.
Series [4] relates to VEGF/PlGF heterodimer (Homo sapiens). Nature of the series: competition with a labelled probe. As to conditions: 10 fmol; no phase transition at 40 min; purified recombinant protein; protein details: R&D Systems or USB; dose not given here.

For part of these data: Negatives hold for the conditions tested. For part of these data: Tags and fusion partners may be left off the protein sequences shown. For part of these data: Whether high values mean tight binding is not given here for every scale.

Take “GGGAGGGAAUCAGUGAAUGCUUAUACAUCCCUCCUUGAGCAGUCGAUUAGUUUCGACAGGAGGCUCAC [RNA132 annealed with DNA I (complement of 1-68)]”: the binding signal (% of RNA132 alone) in the series on VEGF165 (Homo sapiens) [1] worked out at 0.

“GGGAGGGAAUCAGUGAAUGCUUAUACAUCCCUCCUUGAGCAGUCGAUUAGUUUCGACAGGAGGCUCAC [RNA132]”: the “functional effect of the aptamer” value in the series with endocrine gland VEGF is recorded as “not active”; in the series with VEGF121 (Homo sapiens), “not active”; in the series with VEGF165 (Homo sapiens) [2], “active”; in series [3], “not active”; in series [4] it was “not active”.

Values taken from US8324357.
